Experiment: Chemiluminescence intensity over time after triggering the dioxetane with alkaline amine-based 221 buffer
Type: physicochemical
Details: compare FIG. 5 and FIG. 1

## C=Cc1ccc(C2(OC)OOC23C2CC4CC(C2)CC3C4)cc1O (stereo not shown) [Example 5]
  intensity of luminescence relative to the corresponding unsubstituted compound: at least 20 ×

Source: US20220390459A1, “RAPID, HIGH-INTENSITY CHEMILUMINESCENT DIOXETANES” (Beckman Coulter, Inc., priority 2019, published 2022)
